From publication PMC5283832 come the findings set out here.

The chains behind the UniProt entries cited, without tags or fusion partners. Residues count along the entry.
UniProt P63165, residues 1-95: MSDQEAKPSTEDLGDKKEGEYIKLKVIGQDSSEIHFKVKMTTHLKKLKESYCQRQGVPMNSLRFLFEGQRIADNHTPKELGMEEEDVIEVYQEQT
UniProt P63279: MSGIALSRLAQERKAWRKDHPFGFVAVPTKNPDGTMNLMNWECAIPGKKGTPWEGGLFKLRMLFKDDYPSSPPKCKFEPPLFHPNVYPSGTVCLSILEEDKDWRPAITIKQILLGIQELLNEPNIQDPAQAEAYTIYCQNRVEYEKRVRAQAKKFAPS

Assay [1] has as its target CFP-NaV1.2-Lys38Gln (rat) (UniProt P04775). Nature of the assay: FRET or BRET; donor (CFP) photobleaching time constant τ in the presence of YFP acceptor; live CHO cells co-expressing the β1 subunit; epi-fluorescence microscope; 130 mM NaCl, 4 mM KCl, 1.2 mM MgCl2, 2 mM CaCl2, 10 mM HEPES pH 7.4; 3 regions of 5–7 cells per group. A general note: In BRET a luciferase serves as donor, and the signal depends on an acceptor being close.

The next assay has as its target CFP-NaV1.2 (rat) (UniProt P04775). The assay is described as above.
Assay [2] addresses native NaV1.2 (rat (endogenous in cerebellar granule neurons)) (UniProt P04775). Nature of the assay: FRET or BRET; antibody-mediated FRET (amFRET) by acceptor photobleaching; native proteins in rat cerebellar granule neurons, permeabilised with digitonin and fixed; Alexa 488 (donor, NaV1.2) and Alexa 594 (acceptor) secondary antibodies; neurons in ambient O2 or 1% O2 for 5 min.

Results are given in words; binding and its absence hold for the method and conditions named. Binding seen in cells or lysates may run through a third protein.

Regarding “YFP-SUMO1_(95) (from UniProt P63165 1-95) (domain or fragment)”, the binding result (in assay [1]; with CFP-NaV1.2 (rat)) was “no binding” each time.

On to “YFP-Ubc9 (from UniProt P63279 1-158) (enzyme)”, for which, in assay [1], the binding result was “no binding”.

B1: GAD67 (protein, UniProt P18088 1-593)
chain: MASSTPSPATSSNAGADPNTTNLRPTTYDTWCGVAHGCTRKLGLKICGFLQRTNSLEEKSRLVSAFRERQASKNLLSCENSDPGARFRRTETDFSNLFAQDLLPAKNGEEQTVQFLLEVVDILLNYVRKTFDRSTKVLDFHHPHQLLEGMEGFNLELSDHPESLEQILVDCRDTLKYGVRTGHPRFFNQLSTGLDIIGLAGEWLTSTANTNMFTYEIAPVFVLMEQITLKKMREIIGWSNKDGDGIFSPGGAISNMYSIMAARYKYFPEVKTKGMAAVPKLVLFTSEHSHYSIKKAGAALGFGTDNVILIKCNERGKIIPADLEAKILDAKQKGFVPLYVNATAGTTVYGAFDPIQEIADICEKYNLWLHVDAAWGGGLLMSRKHRHKLSGIERANSVTWNPHKMMGVLLQCSAILVKEKGILQGCNQMCAGYLFQPDKQYDVSYDTGDKAIQCGRHVDIFKFWLMWKAKGTVGFENQINKCLELAEYLYAKIKNREEFEMVFNGEPEHTNVCFWYIPQSLRGVPDSPERREKLHRVAPKIKALMMESGTTMVGYQPQGDKANFFRMVISNPAATQSDIDFLIEEIERLGQDL
For the molecule B1, in assay [2], the binding result is given as “no binding”.
